The source of these data is the supplement of paper PMC6331611.

± gives the standard deviation of the averaged measurements. Over roughly 1,600 compounds, “normalized growth (OD600, IQM-normalized) in LPM” has its median near 1; the lowest 2% begin near 0.014. The list shows a part of the results.

This assay concerns Salmonella enterica serovar Typhimurium SL1344. In words: normalized growth (OD600, IQM-normalized) in LPM (fraction of plate interquartile mean); higher = more bacterial growth (less inhibition). The conditions noted are these: LPM pH 5.8; 10 µM; 16 h.
Molecule `O=C([O-])[C@H]1/C(=C/CO)O[C@@H]2CC(=O)N21.[Li+]` displayed a normalized growth of 1.12 ± 0.076.

On to `CC[C@H]1OC(=O)[C@H](C)[C@@H](O[C@H]2C[C@@](C)(OC)[C@@H](O)[C@H](C)O2)[C@H](C)[C@@H](O[C@@H]2O[C@H](C)C[C@H](N(C)C)[C@H]2O)[C@](C)(O)C[C@@H](C)/C(=N\OCOCCOC)[C@H](C)[C@@H](O)[C@]1(C)O`, for which the normalized growth was 0.852 ± 0.039.

`CC(C)NCC(O)COc1ccc(COCCOC(C)C)cc1` (stereo not drawn): the normalized growth stood at 1.06 ± 0.009.

Molecule `O=C1CN2Cc3c(ccc(Cl)c3Cl)N=C2N1` came in with a normalized growth of 1.05 ± 0.055.

`Nc1nc(Cl)nc2c1ncn2[C@@H]1O[C@H](CO)[C@@H](O)[C@@H]1F`: the normalized growth was 1.11 ± 0.025.

Molecule `CC(=O)OCC(COC(C)=O)OC(C)=O` gave a normalized growth of 1.05 ± 0.062.

Molecule `NC(=O)N1c2ccccc2C=Cc2ccccc21` gave a normalized growth of 1.06 ± 0.059.

Turning to `NCCC[C@H](N)C(=O)O`, the normalized growth was 0.945 ± 0.082.

`CN(C)CCN(Cc1cccs1)c1ccccn1` came in with a normalized growth of 1.03 ± 0.053.

Regarding `CC(=O)N[C@@H](CC(=O)N[C@@H](CCC(=O)O)C(=O)O)C(=O)O`, the normalized growth was 0.968 ± 0.075.

With `Cc1ccc(S(=O)(=O)NC(=O)NN2CC3CCCC3C2)cc1` (stereo not drawn), the normalized growth was 1.02 ± 0.044.

As to `CCn1cc(C(=O)O)c(=O)c2cnc(N3CCNCC3)nc21`, the normalized growth amounted to 1.02 ± 0.013.

On to `NCCS(=O)(=O)O`, for which the normalized growth was 1.1 ± 0.053.

With `COc1cc2nc(N3CCN(C(=O)c4ccco4)CC3)nc(N)c2cc1OC`, the normalized growth came to 1.15 ± 0.043.

Turning to `Oc1c(I)cc(I)c2cccnc12`, the normalized growth was found to be 0.58 ± 0.02.

`O=C(CCCN1CC=C(n2c(=O)[nH]c3ccccc32)CC1)c1ccc(F)cc1`: the normalized growth was found to be 1.1 ± 0.052.

As to `CCN(CC)CCNC(=O)c1cc(S(C)(=O)=O)ccc1OC`, the normalized growth worked out at 1.02 ± 0.054.

Turning to `CCn1cc(C(=O)O)c(=O)c2ccc(C)nc21`, the normalized growth came out at 0.071 ± 0.011.

`C[C@H]1[C@@H](O)O[C@@H]2O[C@@]3(C)CC[C@H]4[C@H](C)CC[C@@H]1[C@@]24OO3` showed a normalized growth of 1.13 ± 0.061.

Molecule `CCCCCC(C)N` (stereo not drawn) gave a normalized growth of 1.08 ± 0.11.

The molecule `O=C(O)CCC(=O)OC[C@@H](NC(=O)C(Cl)Cl)[C@H](O)c1ccc([N+](=O)[O-])cc1` showed a normalized growth of 0.014 ± 0.00072.

As for `COc1ccc2cc(CCC(C)=O)ccc2c1`, the normalized growth came out at 1.03 ± 0.032.

In the case of `C#CCN(C)Cc1ccccc1`, the normalized growth came out at 1.06 ± 0.048.

`OC(CCN1CCCCC1)(c1ccccc1)C1CC2C=CC1C2` (stereo not drawn) returned a normalized growth of 1.04 ± 0.022.

In the case of `CCN(CC)CC#CCOC(=O)C(O)(c1ccccc1)C1CCCCC1` (stereo not drawn), the normalized growth was determined as 0.955 ± 0.025.

Turning to `CCN(Cc1ccncc1)C(=O)C(CO)c1ccccc1` (stereo not drawn), the normalized growth was 1.06 ± 0.13.

The molecule `CC(C)N1CCN(c2ccc(OCC3COC(Cn4cncn4)(c4ccc(Cl)cc4Cl)O3)cc2)CC1` (stereo not drawn) displayed a normalized growth of 0.978 ± 0.059.

Molecule `CN1C2CCCC1CC(NC(=O)c1nn(C)c3ccccc13)C2` (stereo not drawn) showed a normalized growth of 1.06 ± 0.013.

`O=C([O-])c1ccccc1O.[Na+]` returned a normalized growth of 0.705 ± 0.029.

For the molecule `NC[C@H]1O[C@H](O[C@H]2[C@H](O[C@@H]3O[C@H](CO)[C@@H](O)[C@H]3O)[C@@H](O)[C@H](N)C[C@@H]2N)[C@H](N)[C@@H](O)[C@@H]1O`, the normalized growth came to 1.01 ± 0.072.

As to `C=CC[C@@H]1/C=C(\C)C[C@H](C)C[C@H](OC)[C@H]2O[C@@](O)(C(=O)C(=O)N3CCCC[C@H]3C(=O)O[C@H](/C(C)=C/[C@@H]3CC[C@@H](O)[C@H](OC)C3)[C@H](C)[C@@H](O)CC1=O)[C@H](C)C[C@@H]2OC`, the normalized growth amounted to 0.857 ± 0.044.

Consider `CN1CCCC(n2nc(Cc3ccc(Cl)cc3)c3ccccc3c2=O)CC1` (stereo not drawn), for which the normalized growth was 1.04 ± 0.039.

The molecule `O=C(CNC(=O)c1ccc(Cl)cc1)NO` yielded a normalized growth of 1.06 ± 0.053.

With `CN(C)CCC[C@@]1(c2ccc(F)cc2)OCc2cc(C#N)ccc21`, the normalized growth worked out at 1.08 ± 0.041.

For the molecule `CC1=CC(=O)NS(=O)(=O)O1`, the normalized growth amounted to 0.928 ± 0.054.

For the molecule `NC(=O)N/N=C/c1ccc([N+](=O)[O-])o1`, the normalized growth stood at 1.13 ± 0.04.

On to `O=C(O[C@H]1CN2CCC1CC2)N1CCc2ccccc2[C@@H]1c1ccccc1`, for which the normalized growth was determined as 0.985 ± 0.021.

The molecule `CN1CCCCC1CCN1c2ccccc2Sc2ccc([S+](C)[O-])cc21` (stereo not drawn) showed a normalized growth of 0.963 ± 0.027.

`CO[C@@H]1[C@@H](OC(N)=O)[C@@H](O)[C@H](Oc2ccc3c(O)c(NC(=O)c4ccc(O)c(CC=C(C)C)c4)c(=O)oc3c2C)OC1(C)C` came in with a normalized growth of 0.0394 ± 0.026.

On to `CCN1CCN(C(=O)N[C@@H](C(=O)N[C@@H]2C(=O)N3[C@@H]2SC(C)(C)[C@@H]3C(=O)O)c2ccccc2)C(=O)C1=O`, for which the normalized growth turned out to be 1.013 ± 0.0089.

Molecule `CC(=O)Oc1cccc(O)c1` returned a normalized growth of 1.07 ± 0.025.

Take `CN(C)CCc1c[nH]c2ccc(Cn3cncn3)cc12`: the normalized growth stood at 0.964 ± 0.026.

`OCCN1CCN(CCCN2c3ccccc3Sc3ccc(Cl)cc32)CC1`: the normalized growth was 0.977 ± 0.032.

In turn, `Nc1ccc(S(=O)(=O)c2ccc(N)cc2)cc1` yielded a normalized growth of 0.965 ± 0.043.

For `COc1ccc(NS(=O)(=O)c2ccc(N)cc2)nn1`, the normalized growth is 1.19 ± 0.035.

For the molecule `Nc1ccc(C(=O)NCC(=O)O)cc1`, the normalized growth amounted to 1.05 ± 0.026.

With `CCC[C@H](N[C@@H](C)C(=O)N1[C@H](C(=O)O)C[C@@H]2CCCC[C@@H]21)C(=O)OCC`, the normalized growth stood at 1.02 ± 0.022.

With `Cn1nnnc1SCC1=C(C(=O)O)N2C(=O)[C@@H](NC(=O)[C@H](O)c3ccccc3)[C@H]2SC1`, the normalized growth stood at 0.952 ± 0.093.
